Test results taken from paper PMC9201778.
Results are given in words; binding and its absence hold for the method and conditions named. In cells and extracts the contact can be indirect. A result given as binding can be weak or reduced; the word gives no strength.

Molecular target: Snail (rat (endogenous in NRK-52E))
Experiment: co-IP; Co-IP (Supplementary Figure S1B); immunoprecipitation (Co-IP) kit (Thermo) listed under reagents; sample, precipitating antibody and conditions not told

binding: binds
B1: Inhibitor of differentiation 2 (Id2) (protein, UniProt P41137 1-134)
chain: MKAFSPVRSVRKNSLSDHSLGISRSKTPVDDPMSLLYNMNDCYSKLKELVPSIPQNKKVTKMEILQHVIDYILDLQIALDSHPTIVSLHHQRPGQNQTSRTPLTTLNTDISILSLQASEFPSELMSNDSKVLCG
